PubChem BioAssay AID504793 | Drosophila RNAi Screening Center | 2011

Test: 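Genes required for cells to halt at G2/M after double-strand DNA breaks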 (primary screen)
Cells: Drosophila S2R+ cells
Reagent: long dsRNA against Drosophila genes, about 0.25 µg dsRNA per well
Timing: 4 days of dsRNA, then 4 hours of drug before read-out
Conditions: doxorubicin 0.5 µM for 4 hours to cause double-strand breaks, in cells also given a low, harmless dose of dsRNA against nbs to sensitise the assay
Measured: 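Per-well count of mitotic cells stained for phospho-histone H3 after doxorubicin exposure, used as mitotic index; counts are raw and not normalised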
Direction: mitotic cells: higher = more cells in mitosis, weaker G2 arrest
Active means: 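a call needs confirmation in secondary tests, with other dsRNAs and a check of mitotic timing without damage, not just a high primary count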
Meaning of the calls: active = confirmed in follow-up tests; inactive = not confirmed
The screen tested about 23,000 reagents; shown is a random part of those that have a named target and a result. In the full data, 62 (0.27%) are marked active. 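Calls come from follow-up tests whose scores are not deposited, so confirmed genes may have low counts here; counts are not normalised per plate.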 Raw values vary from plate to plate and are shown uncorrected. Names joined by + are all predicted targets of the reagent.

The first 13 records, to show the layout:
no.	target	amplicon	mitotic cells, replicate 1	mitotic cells, replicate 2	Outcome
1	CG12766	DRSC08295	5		inactive
2	CG2931	DRSC12324	3		inactive
3	l(2)37Bb	DRSC02088	4	9	inactive
4	CR33315	DRSC22947	12		inactive
5	CR33315	DRSC27669	3		inactive
6	CG10465	DRSC04848	8		inactive
7	CG11726	DRSC09858	3		inactive
8	CG7707	DRSC10903	3		inactive
9	gig	DRSC11351	6		inactive
10	gig	DRSC29781	5		inactive
11	CG13717 (retired record)	DRSC08116	5		inactive
12	CG13717 (retired record)	DRSC08324	5		inactive
13	CG13717 (retired record)	DRSC21337	7		inactive

Results, from the first entry:
no.	target	amplicon	mitotic cells, replicate 1	mitotic cells, replicate 2	Outcome
1	CG12766	DRSC08295	5		inactive
2	CG2931	DRSC12324	3		inactive
3	l(2)37Bb	DRSC02088	4	9	inactive
4	CR33315	DRSC22947	12		inactive
5	CR33315	DRSC27669	3		inactive
6	CG10465	DRSC04848	8		inactive
7	CG11726	DRSC09858	3		inactive
8	CG7707	DRSC10903	3		inactive
9	gig	DRSC11351	6		inactive
10	gig	DRSC29781	5		inactive
11	CG13717 (retired record)	DRSC08116	5		inactive
12	CG13717 (retired record)	DRSC08324	5		inactive
13	CG13717 (retired record)	DRSC21337	7		inactive
14	CG13717 (retired record)	DRSC23087	7		inactive
15	CG13717 (retired record)	DRSC28552	2		inactive
16	CG33769	DRSC11716	4		inactive
17	CG16782	DRSC18118	4		inactive
18	Desat2	DRSC15919	6		inactive
19	Desat2	DRSC25894	8		inactive
20	Sfxn2	DRSC10718	6		inactive
21	CG11211	DRSC04851	8		inactive
22	Cpr47Ea	DRSC07333	9		inactive
23	mTerf3	DRSC11759	1		inactive
24	CG8584	DRSC07217	5		inactive
25	dgt1	DRSC15301	29		active
26	SdhBL	DRSC20039	8		inactive
27	Psa	DRSC08152	7		inactive
28	Uhg4 + snoRNA:Psi28S-2949	DRSC36561	5		inactive
29	azot	DRSC06051	1		inactive
30	azot	DRSC25443	5		inactive
31	Mics1	DRSC12537	4		inactive
32	CG3277	DRSC00588	4		inactive
33	CG11912	DRSC00332	18		inactive
34	EndoGI	DRSC01964	4		inactive
35	CG32069 + Blos2	DRSC10621	1		inactive
36	CG17207	DRSC15198	7		inactive
37	Ugt316A1	DRSC10376	5		inactive
38	CG10947	DRSC02111	9		inactive
39	CG10947	DRSC27404	10		inactive
40	CG11723	DRSC00324	6		inactive
41	CG11723	DRSC24890	11		inactive
42	CG15729 (retired record)	DRSC19695	8		inactive
43	CG15729 (retired record)	DRSC29662	8		inactive
44	Obp83g	DRSC12269	4		inactive
45	Obp83g	DRSC28322	2		inactive
46	CG13996	DRSC02328	8		inactive
47	CG33096	DRSC14440	8		inactive
48	CG33096	DRSC25968	3		inactive
49	Blimp-1	DRSC10496			inactive
50	Blimp-1	DRSC24305	3		inactive
51	RpLP1	DRSC00783	5		inactive
52	RpLP1	DRSC22145	14		inactive
53	RpLP1	DRSC23411	5		inactive
54	CG15429	DRSC00444			inactive
55	CG15429	DRSC26501	10		inactive
56	CG33017	DRSC06573	7		inactive
57	CG33017	DRSC06574	6		inactive
58	Pkd2	DRSC02962	5		inactive
59	Pkd2	DRSC27522	2		inactive
60	kirre	DRSC18785	14		inactive
61	kirre	DRSC24733	2		inactive
62	CG16825	DRSC02526	4		inactive
63	GC	DRSC08396	7		inactive
64	GC	DRSC27222	5		inactive
65	mRpL1	DRSC16251	7		inactive
66	CG32750	DRSC18848	12		inactive
67	pinta	DRSC14698	8		inactive
68	p53	DRSC17024	10		inactive
69	sky	DRSC02383	8		inactive
70	sky	DRSC03214	6		inactive
71	sky	DRSC03215	5		inactive
72	CG3740	DRSC18508	11		inactive
73	CG17752	DRSC15262	10		inactive
74	CG17752	DRSC26265	5		inactive
75	CG11113	DRSC06039	4		inactive
76	Hsp70Bb + Hsp70Ba + Hsp70Bc + 1 more	DRSC21247	7		inactive
77	Hsp70Bb + Hsp70Ba + Hsp70Bc + 1 more	DRSC21248	4		inactive
78	IFT20 + CG10395	DRSC22660	11		inactive
79	IFT20 + CG10395	DRSC27079	5		inactive
80	CG13252	DRSC11700	6		inactive
81	CG13252	DRSC27577	11		inactive
82	CG6576	DRSC10663	4		inactive
83	CG6576	DRSC28084	7		inactive
84	CG31266	DRSC15747	1		inactive
85	Cpr65Az	DRSC09882	4		inactive
86	Cpr65Az	DRSC22057	13		inactive
87	Cpr65Az	DRSC23964	8		inactive
88	CG14313	DRSC14792	11		inactive
89	CG33281	DRSC00421			inactive
90	CG34462	DRSC10768	8		inactive
91	CG34462	DRSC25352	9		inactive
92	CG10366	DRSC02046	5		inactive
93	CG10366	DRSC26463	5		inactive
94	usp	DRSC18847	9		inactive
95	usp	DRSC24447	6		inactive
96	CG1909	DRSC17150	3		inactive
97	alien	DRSC03482	10		active
98	CG30427	DRSC04014	5		inactive
99	CG30427	DRSC04311	2		inactive
100	CG30427	DRSC04323	11		inactive
101	CG30427	DRSC26361	8		inactive
102	obst-E	DRSC02128	3		inactive
103	obst-E	DRSC25834	5		inactive
104	CG14837	DRSC10207	5		inactive
105	CG5569	DRSC04514	7		inactive
106	CG13587	DRSC04223	5		inactive
107	CG13587	DRSC29632	2		inactive
108	DIP-theta	DRSC00885	4	13	inactive
109	DIP-theta	DRSC02340	2		inactive
110	CG11145	DRSC06049	5		inactive
